Values quoted from earlier work, collected in article PMC9770967, “Native holdup (nHU) to measure binding affinities from cell extracts” (Science Advances, 2022).

System: HEK293T cells
Details: estimated total protein concentration; cited from earlier work

| Substance | [Protein] (nM) in HEK293T [nM] |
| --- | --- |
| SNX1: component of the SNX-BAR complex | 484 |
| VPS26B: component of the retromer complex | 318 |
